Here are results for one molecule from publication PMC10169665.

By UniProt entry, the sequences of proteins in these tests, tags left out.
UniProt O88545: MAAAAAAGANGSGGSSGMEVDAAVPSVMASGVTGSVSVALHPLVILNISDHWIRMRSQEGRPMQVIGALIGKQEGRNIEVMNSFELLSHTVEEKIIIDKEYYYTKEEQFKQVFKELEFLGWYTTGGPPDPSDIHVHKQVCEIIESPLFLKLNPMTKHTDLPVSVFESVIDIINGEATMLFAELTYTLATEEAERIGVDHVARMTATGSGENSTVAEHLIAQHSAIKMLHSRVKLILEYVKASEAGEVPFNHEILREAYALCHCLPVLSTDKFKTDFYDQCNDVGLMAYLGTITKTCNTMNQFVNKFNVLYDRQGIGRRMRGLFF

Substrate in experiment [1]: CSN subunit 6 (CSN6), a subunit of COP9 signalosome (mouse (endogenous in bone marrow HSCs / Lin- c-Kit+ cells)) (UniProt O88545)
The experiment can be described thus: proximity ligation; in situ proximity ligation assay in mouse HSCs upon 5-FU and IR treatment.

Substrate in experiment [2]: CSN subunit 6 (CSN6), a subunit of COP9 signalosome (mouse (endogenous in bone marrow HSCs / Lin- c-Kit+ cells)) (UniProt O88545)
Nature of the experiment: co-IP; Lin- c-Kit+ cells purified from the BM of mice at day 9 after 5-FU injection; IgG antibody as negative control; endogenous proteins.

These are yes or no findings as the source states them, for the method shown. In cells and extracts the contact can be indirect. Some binding calls cover weakened binding; strength is not graded here.

B1: Thymocyte-expressed, positive selection-associated 1 (Tespa1) (protein, UniProt Q3U132 1-458)
chain: MEASVLSPTSWEKRRAWLRQSRNWQTQVLEEEAAAALQDALDPEPSSLDDVFQEGNPINKIEDWLQGCGCRDTEEGLSEESGQSNYSGYSSHGTSFEDDLSLGAEATLLSTNGNLFSRNFLQTPRLCQLLDLGSSLASSSMTGGTNKTSSSISEILDQVQEDAEDILFSLGFGHENHKDTSRIPARFFSNPSQAKGINFQLFLKSQVQRMEMEDPCLMLASRFKQVQTLAVTADAFFCLYSYVSKTPVQKFTPSNMFWNFDPTDVPSIRILAPEPEPYSPRERLRRAISKMCLYTGSRDRLSSSYNNPKKNSLDQIVWEVMDRVKGEKIQQDPEHRQALGEESVPPIQNTNPSTSSLPCVSYPKEETQGDMCHAHALARPGPQYHINSTQVRRQLWVLQDINEKPRSAENESPWERKSKARKNLFQRVPVDKNIKSLNLPTIQQKQNQGQARHELTNL
On to B1, for which the binding entry in experiment [1] and in experiment [2] was “binds” in each case.
